No constants are given. Whether binding was seen depends on the method and setting. Some entries that bind do so weakly or less than the wild type.
T1: SAS-7 (C. elegans) (UniProt G5EBL8)
T1 sequence: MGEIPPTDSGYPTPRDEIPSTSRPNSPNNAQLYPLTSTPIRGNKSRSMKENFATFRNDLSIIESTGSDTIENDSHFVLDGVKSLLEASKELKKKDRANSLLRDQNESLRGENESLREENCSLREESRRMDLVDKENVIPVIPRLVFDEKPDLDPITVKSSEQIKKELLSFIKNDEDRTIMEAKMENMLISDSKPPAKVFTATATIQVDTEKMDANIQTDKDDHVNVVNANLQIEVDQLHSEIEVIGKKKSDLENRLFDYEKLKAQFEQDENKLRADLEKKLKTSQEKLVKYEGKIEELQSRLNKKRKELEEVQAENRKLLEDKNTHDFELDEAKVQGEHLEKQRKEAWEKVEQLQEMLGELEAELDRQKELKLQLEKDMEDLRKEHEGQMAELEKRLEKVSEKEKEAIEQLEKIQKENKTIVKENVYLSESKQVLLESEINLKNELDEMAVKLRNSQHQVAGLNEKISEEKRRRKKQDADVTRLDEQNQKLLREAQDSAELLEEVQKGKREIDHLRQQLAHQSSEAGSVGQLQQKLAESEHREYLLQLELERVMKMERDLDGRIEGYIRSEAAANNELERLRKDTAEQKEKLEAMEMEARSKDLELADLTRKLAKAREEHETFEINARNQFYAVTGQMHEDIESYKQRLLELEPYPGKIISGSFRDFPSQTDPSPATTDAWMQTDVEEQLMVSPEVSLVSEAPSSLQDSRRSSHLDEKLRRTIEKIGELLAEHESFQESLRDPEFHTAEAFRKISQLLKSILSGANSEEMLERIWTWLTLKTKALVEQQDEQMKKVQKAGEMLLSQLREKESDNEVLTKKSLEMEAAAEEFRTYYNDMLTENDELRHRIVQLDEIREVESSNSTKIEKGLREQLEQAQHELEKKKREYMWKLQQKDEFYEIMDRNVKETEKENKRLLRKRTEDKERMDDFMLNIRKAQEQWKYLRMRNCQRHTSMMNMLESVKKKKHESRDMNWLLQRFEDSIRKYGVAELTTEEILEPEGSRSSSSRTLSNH

B1: SAS-7 (protein, UniProt G5EBL8 1-1013)
chain: T1 sequence
B2: SPD-5 (protein, UniProt P91349 1-1198)
chain: MEDNSVLNEDSNLEHVEGQPRRSMSQPVLNVEGDKRTSSTSATQQQVLSGAFSSADVRSIPIIQTWEENKALKTKITILRGELQMYQRRYSEAKEASQKRVKEVMDDYVDLKLGQENVQEKMEQYKLMEEDLLAMQSRIETSEDNFARQMKEFEAQKHAMEERIKELELSATDANNTTVGSFRGTLDDILKKNDPDFTLTSGYEERKINDLEAKLLSEIDKVAELEDHIQQLRQELDDQSARLADSENVRAQLEAATGQGILGAAGNAMVPNSTFMIGNGRESQTRDQLNYIDDLETKLADAKKENDKARQALVEYMNKCSKLEHEIRTMVKNSTFDSSSMLLGGQTSDELKIQIGKVNGELNVLRAENRELRIRCDQLTGGDGNLSISLGQSRLMAGIATNDVDSIGQGNETGGTSMRILPRESQLDDLEESKLPLMDTSSAVRNQQQFASMWEDFESVKDSLQNNHNDTLEGSFNSSMPPPGRDATQSFLSQKSFKNSPIVMQKPKSLHLHLKSHQSEGAGEQIQNNSFSTKTASPHVSQSHIPILHDMQQILDSSAMFLEGQHDVAVNVEQMQEKMSQIREALARLFERLKSSAALFEEILERMGSSDPNADKIKKMKLAFETSINDKLNVSAILEAAEKDLHNMSLNFSILEKSIVSQAAEASRRFTIAPDAEDVASSSLLNASYSPLFKFTSNSDIVEKLQNEVSELKNELEMARTRDMRSPLNGSSGRLSDVQINTNRMFEDLEVSEATLQKAKEENSTLKSQFAELEANLHQVNSKLGEVRCELNEALARVDGEQETRVKAENALEEARQLISSLKHEENELKKTITDMGMRLNEAKKSDEFLKSELSTALEEEKKSQNLADELSEELNGWRMRTKEAENKVEHASSEKSEMLERIVHLETEMEKLSTSEIAADYCSTKMTERKKEIELAKYREDFENAAIVGLERISKEISELTKKTLKAKIIPSNISSIQLVCDELCRRLSREREQQHEYAKVMRDVNEKIEKLQLEKDALEHELKMMSSNNENVPPVGTSVSGMPTKTSNQKCAQPHYTSPTRQLLHESTMAVDAIVQKLKKTHNMSGMGPELKETIGNVINESRVLRDFLHQKLILFKGIDMSNWKNETVDQLITDLGQLHQDNLMLEEQIKKYKKELKLTKSAIPTLGVEFQDRIKTEIGKIATDMGGAVKEIRKK
B3: SPD-2 (protein, UniProt P91870 1-824)
chain: MEDDAPMNLCNEQFEEIEDSPIDDNDNESFYNADGDVELEEEEVHETPKNFKNGGRFKTNMTNPKVNDLTTIEEKNEDLRSAASSRSASRPASVMSDKSFSSQFEFQSGGENAIEEYTNQVFADENKADLLFPETSKFMNGASPPKDKHHSWEPSIHHYDKQPPPDIQTNSPVFGNLNHRKNKLIPQARAKPGANDNEIVERDNDENVPTTSDKSAFITSPMNSTNHDEKTSTPKRPTNRKIGQYQGPNFDLSSIYVGSPQHQNTSISTGQQMPTSSYSHAHSETMMTNQTINESMVRRVLNGNNKNQDLFAALEEARKRRAAQPSKPDFRINTTRTRVPIKPTSARHSGNVVSSTSNDNTTAASSKDLTTSRKAMETFRQNASMADATNSNTASMTSILSTISTARTDISRSSRNHGGGFSNTSVSTVIPANNGNVSLSHGRDGRDSVSSVRTMSRASSTSTVYAGSTFSGVSKPLRIHAKRVAFGCVAVGETLRVEVEVENISDRQCLVRASTDSTTPVYQILDNKLTMVDPKKSIKFQVSFSPSSVGRYQVIMSIEVPAQNFIHKIPMWGNGGIAKFVPTSPDLQQTINQSEYAMCTSCAKRISFKISNSAGTRDGFAMIKVFDSAMRQLPDGCVAFFPAPGFIVKKKSDKRVDIRIDSSYIDLHDENNFRTSSSLSTASTTSSFQRRILPGAKFFVHVVWGEETMRTRLRLLEVRTGQHQLIDGHDFTSFQFSDEEVLRAVPVGFPAIKPEDRDLFAASYRSFFINFFTSTTEFRAATSRKKKEICSNDDSTLLETTAFRNQTFVNDVTIVPNTRFSNRK

target: T1, SAS-7 (C. elegans); test: two-hybrid

| binding | Binder |
| --- | --- |
| no binding | B1 |
| no binding | B2 |
| binds | B3 |
